Source: US9662329B2, “Use of survivin antagonists in polyomavirus-related disease” (University of Pittsburgh—Of the Commonwealth System of …, priority 2012, dated 2017)

System: MKL-1 cells
Assay: MKL-1 cytotoxicity screen (Cell Titer Glo)
Format: cell-based, human
Details: screened at 10^-5 M; 48 hours; cut-off <10% cell survival

CC(C)n1nc(-c2cc3cc(O)ccc3[nH]2)c2c(N)ncnc21 [PP242]
activity in screen (>90% inhibition of MKL-1 cell growth): not active
